Compound in the experiment: CCc1cnccc1C(=O)Nc1cc2c(cc1F)NC(=O)CC2
As to the kind of experiment: melting temperature shift (DMSO Tm minus MBE1-treated Tm) in cellular thermal proteome profiling; higher = less thermal stabilization by MBE1 (negative = stabilized by MBE1). Conditions: A375.

Sequences of proteins named here, by UniProt entry; tags and fusion partners are left off. A change or cut given only in a name is not applied to a line headed by its entry.
UniProt Q9HCP0: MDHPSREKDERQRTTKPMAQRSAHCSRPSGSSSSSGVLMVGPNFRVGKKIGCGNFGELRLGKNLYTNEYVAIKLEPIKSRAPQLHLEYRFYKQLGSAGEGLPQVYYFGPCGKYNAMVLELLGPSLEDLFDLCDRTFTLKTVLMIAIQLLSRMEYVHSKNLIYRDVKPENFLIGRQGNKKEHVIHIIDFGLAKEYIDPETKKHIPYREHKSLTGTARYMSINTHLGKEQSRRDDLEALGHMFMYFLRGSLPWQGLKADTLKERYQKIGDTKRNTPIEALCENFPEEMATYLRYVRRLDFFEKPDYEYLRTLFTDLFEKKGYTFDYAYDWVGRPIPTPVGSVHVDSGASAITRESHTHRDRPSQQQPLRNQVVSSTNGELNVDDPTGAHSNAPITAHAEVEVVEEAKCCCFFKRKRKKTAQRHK
UniProt Q9NTI5: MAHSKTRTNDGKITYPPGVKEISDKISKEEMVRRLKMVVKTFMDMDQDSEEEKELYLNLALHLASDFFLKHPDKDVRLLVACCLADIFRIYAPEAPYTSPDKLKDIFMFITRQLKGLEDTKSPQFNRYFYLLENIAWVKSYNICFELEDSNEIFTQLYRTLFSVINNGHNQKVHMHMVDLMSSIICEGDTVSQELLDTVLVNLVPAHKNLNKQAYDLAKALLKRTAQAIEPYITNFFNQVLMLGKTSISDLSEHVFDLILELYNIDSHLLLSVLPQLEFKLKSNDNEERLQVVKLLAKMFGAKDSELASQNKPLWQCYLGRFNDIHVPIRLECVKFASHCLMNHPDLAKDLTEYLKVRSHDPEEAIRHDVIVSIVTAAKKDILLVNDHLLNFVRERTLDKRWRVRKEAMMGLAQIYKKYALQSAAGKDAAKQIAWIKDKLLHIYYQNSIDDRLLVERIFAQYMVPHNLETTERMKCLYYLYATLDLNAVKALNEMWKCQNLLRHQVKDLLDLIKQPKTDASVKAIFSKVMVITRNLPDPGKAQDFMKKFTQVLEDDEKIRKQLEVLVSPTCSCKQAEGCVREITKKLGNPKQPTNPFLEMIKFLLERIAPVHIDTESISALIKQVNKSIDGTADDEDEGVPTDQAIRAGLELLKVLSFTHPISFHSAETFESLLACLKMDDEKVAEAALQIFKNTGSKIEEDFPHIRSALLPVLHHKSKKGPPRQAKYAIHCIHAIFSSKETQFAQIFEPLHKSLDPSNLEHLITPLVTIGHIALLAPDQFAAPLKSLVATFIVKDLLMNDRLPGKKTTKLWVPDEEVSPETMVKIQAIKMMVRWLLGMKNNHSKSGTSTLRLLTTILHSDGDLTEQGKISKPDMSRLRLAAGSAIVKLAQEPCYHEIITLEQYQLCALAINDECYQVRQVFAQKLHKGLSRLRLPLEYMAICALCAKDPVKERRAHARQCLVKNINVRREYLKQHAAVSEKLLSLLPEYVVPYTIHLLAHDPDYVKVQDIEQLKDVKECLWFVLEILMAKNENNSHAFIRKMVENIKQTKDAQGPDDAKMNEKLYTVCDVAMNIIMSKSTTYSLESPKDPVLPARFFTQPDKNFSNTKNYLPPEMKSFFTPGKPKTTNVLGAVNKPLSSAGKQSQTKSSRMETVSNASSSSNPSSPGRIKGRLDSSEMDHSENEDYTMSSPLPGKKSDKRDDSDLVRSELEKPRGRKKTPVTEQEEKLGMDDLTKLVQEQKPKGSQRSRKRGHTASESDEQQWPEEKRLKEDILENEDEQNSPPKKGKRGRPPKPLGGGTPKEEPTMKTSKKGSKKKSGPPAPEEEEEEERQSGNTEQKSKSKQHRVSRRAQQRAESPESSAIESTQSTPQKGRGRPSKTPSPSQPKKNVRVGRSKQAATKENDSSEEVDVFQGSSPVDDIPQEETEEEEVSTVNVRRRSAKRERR
UniProt Q9NS18: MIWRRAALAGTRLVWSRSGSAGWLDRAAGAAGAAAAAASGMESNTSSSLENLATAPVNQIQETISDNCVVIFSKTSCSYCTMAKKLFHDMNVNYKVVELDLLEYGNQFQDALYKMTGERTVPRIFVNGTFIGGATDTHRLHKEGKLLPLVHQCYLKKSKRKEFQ
UniProt Q9HC98: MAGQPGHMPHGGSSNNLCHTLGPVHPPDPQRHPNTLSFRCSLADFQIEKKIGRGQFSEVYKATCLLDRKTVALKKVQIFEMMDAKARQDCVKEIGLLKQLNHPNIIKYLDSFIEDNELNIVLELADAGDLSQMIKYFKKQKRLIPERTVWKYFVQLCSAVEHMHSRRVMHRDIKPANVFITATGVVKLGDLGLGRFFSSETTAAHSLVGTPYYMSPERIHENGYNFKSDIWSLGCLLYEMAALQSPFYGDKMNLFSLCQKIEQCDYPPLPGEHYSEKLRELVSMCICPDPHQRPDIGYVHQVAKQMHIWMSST
UniProt Q9H936: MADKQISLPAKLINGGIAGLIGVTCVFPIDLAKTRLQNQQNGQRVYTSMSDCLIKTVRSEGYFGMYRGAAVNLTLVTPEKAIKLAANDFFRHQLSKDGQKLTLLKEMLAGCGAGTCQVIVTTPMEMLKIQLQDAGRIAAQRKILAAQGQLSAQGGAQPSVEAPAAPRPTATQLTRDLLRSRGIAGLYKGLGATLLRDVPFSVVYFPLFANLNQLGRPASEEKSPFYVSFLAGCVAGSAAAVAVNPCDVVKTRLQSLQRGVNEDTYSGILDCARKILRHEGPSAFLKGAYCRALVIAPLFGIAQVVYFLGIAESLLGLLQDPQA
UniProt Q9NSA3: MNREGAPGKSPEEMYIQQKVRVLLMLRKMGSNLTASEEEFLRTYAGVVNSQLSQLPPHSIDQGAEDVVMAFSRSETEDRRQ
UniProt Q9HCG8: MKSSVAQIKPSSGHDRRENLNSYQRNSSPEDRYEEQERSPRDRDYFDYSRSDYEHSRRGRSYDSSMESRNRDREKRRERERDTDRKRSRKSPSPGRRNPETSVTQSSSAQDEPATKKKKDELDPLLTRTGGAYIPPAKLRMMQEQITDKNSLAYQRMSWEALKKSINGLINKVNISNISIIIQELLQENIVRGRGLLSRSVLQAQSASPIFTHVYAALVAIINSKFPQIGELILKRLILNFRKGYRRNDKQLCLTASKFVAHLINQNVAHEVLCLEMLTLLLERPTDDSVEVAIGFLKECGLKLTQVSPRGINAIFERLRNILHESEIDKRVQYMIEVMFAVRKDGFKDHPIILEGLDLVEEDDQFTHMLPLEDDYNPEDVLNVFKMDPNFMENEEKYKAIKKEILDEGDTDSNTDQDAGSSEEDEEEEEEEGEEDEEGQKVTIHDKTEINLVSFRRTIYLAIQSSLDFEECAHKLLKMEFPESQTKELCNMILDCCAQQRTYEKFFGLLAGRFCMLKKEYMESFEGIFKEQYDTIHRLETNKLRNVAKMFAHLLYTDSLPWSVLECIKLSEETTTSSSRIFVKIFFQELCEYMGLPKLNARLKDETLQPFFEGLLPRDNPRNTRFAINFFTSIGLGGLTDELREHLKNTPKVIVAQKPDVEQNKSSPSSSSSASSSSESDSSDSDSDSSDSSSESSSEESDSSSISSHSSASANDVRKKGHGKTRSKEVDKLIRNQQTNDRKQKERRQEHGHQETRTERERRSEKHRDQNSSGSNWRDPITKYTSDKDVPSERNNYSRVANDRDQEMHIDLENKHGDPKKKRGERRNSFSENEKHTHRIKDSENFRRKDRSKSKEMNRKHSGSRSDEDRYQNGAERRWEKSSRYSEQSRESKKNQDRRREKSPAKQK
UniProt Q9HD23: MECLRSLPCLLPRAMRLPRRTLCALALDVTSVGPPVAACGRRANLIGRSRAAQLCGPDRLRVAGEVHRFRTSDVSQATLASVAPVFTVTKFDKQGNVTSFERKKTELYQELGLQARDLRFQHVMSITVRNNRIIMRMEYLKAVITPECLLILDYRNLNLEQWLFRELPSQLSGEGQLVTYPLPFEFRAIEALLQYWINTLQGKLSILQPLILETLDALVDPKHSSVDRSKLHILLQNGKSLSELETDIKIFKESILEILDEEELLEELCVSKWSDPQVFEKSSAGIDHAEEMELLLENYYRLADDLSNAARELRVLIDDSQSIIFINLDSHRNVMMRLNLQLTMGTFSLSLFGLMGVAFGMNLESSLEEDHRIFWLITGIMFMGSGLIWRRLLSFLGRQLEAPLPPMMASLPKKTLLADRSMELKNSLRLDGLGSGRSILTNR
UniProt Q9HD20: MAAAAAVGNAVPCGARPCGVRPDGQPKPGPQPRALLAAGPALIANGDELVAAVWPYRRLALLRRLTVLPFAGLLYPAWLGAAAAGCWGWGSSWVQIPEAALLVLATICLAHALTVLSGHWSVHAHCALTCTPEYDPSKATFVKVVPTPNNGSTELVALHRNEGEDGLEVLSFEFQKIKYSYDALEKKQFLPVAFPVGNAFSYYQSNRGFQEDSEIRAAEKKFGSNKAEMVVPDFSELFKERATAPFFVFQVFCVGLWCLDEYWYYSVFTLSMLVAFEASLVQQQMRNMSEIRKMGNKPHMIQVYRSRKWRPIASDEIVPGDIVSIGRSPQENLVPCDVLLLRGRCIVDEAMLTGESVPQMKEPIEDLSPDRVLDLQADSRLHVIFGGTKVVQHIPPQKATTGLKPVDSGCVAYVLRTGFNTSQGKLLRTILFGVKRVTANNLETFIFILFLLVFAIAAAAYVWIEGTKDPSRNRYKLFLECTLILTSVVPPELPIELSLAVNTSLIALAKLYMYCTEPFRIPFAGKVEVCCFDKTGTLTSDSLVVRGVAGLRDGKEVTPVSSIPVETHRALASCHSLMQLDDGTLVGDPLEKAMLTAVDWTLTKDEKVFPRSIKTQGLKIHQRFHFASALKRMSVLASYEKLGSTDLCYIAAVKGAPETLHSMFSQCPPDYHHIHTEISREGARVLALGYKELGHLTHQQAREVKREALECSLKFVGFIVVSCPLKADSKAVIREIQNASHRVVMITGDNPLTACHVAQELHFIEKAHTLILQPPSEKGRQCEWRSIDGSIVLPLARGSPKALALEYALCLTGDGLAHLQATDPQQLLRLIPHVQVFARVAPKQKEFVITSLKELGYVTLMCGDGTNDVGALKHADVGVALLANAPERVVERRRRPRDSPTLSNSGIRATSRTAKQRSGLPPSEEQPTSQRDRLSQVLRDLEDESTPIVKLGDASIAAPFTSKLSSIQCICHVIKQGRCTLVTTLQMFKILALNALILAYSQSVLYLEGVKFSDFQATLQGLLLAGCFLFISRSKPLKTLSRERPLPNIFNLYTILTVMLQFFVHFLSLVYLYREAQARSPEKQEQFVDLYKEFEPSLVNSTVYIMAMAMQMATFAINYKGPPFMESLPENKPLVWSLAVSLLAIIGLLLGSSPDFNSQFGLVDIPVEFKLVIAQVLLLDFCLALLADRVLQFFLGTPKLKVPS
UniProt Q9HA65: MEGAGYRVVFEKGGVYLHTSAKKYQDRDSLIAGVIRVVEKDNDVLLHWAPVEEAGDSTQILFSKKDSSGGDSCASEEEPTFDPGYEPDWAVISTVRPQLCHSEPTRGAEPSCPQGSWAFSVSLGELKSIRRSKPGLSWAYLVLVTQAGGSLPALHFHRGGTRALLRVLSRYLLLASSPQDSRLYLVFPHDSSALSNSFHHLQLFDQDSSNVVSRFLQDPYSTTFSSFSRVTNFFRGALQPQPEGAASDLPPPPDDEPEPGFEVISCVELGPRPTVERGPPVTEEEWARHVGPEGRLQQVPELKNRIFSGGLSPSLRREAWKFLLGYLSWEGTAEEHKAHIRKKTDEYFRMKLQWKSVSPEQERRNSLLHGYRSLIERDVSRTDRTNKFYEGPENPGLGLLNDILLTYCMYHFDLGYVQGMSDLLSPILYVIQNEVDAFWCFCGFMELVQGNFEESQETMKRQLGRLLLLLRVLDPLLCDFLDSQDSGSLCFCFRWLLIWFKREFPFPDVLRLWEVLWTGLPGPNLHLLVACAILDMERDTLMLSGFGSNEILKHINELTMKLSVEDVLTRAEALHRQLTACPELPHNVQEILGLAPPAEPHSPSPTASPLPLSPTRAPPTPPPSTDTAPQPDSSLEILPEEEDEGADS
UniProt Q9H900: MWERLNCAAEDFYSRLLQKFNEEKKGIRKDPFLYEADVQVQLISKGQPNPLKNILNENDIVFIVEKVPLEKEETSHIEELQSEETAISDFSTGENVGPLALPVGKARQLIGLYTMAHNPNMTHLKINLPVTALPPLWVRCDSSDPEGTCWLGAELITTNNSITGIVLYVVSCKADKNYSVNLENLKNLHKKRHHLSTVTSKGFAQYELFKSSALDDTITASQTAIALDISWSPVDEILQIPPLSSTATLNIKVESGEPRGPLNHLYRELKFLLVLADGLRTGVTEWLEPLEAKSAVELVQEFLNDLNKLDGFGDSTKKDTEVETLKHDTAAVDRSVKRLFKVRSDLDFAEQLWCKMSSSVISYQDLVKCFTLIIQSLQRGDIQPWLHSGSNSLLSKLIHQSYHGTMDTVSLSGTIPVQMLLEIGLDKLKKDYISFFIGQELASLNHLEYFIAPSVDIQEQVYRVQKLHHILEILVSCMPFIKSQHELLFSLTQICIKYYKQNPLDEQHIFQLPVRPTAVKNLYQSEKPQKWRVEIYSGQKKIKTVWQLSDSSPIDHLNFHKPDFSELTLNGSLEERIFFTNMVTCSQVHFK

Some of the results follow. Single values of this set are uncertain.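 Tm was set to 64 °C where no melting was found, and many curves are irregular.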

GORASP2 (UniProt Q9H8Y8): the melting temperature shift (MBE1 concentration: 100 nM) stood at 0.965 °C and the melting temperature shift (MBE1 concentration: 1 uM) amounted to 0.354 °C.
Taken in the same sequence, the figures for AAAS (UniProt Q9NRG9) were 0.134 °C and 1.3 °C.
On the same counts, the results for UniProt Q9HCP0 are 0.0268 °C and -0.617 °C.
On the same counts, the results for SLC38A10 (UniProt Q9HBR0) are -1.46 °C and 0.421 °C.
For the target UniProt Q9NQV6, the melting temperature shift is 0.0753 °C (MBE1 concentration: 100 nM) and -0.441 °C (MBE1 concentration: 1 uM).
On the same counts, the results for DYNLRB1 (UniProt Q9NP97) are 0.13 °C and -2.1 °C.
Consider UniProt Q9NRH1, for which the melting temperature shift is -1.05 °C (MBE1 concentration: 100 nM) and -0.496 °C (MBE1 concentration: 1 uM).
On the same counts, the results for XAB2 (UniProt Q9HCS7) are -0.0705 °C and -0.429 °C.
On the same counts, the results for SSU72 (UniProt Q9NP77) are -0.737 °C and -0.644 °C.
On the same counts, the results for UniProt Q9NVE5 are -0.551 °C and -1.61 °C.
As for MRPL17 (UniProt Q9NRX2), the melting temperature shift (MBE1 concentration: 100 nM) turned out to be 0.977 °C and the melting temperature shift (MBE1 concentration: 1 uM) is 0.537 °C.
Taken in the same sequence, the figures for EIF2B3 (UniProt Q9NR50) were 0.452 °C and 0.488 °C.
On the same counts, the results for PDS5B (UniProt Q9NTI5) are -1.02 °C and -0.523 °C.
As to UniProt Q9HCE3, the melting temperature shift is, setting by setting: (MBE1 concentration: 100 nM) -0.669 °C; (MBE1 concentration: 1 uM) -0.622 °C.
As to TXLNG (UniProt Q9NUQ3), the melting temperature shift is -0.543 °C (MBE1 concentration: 100 nM) and -0.174 °C (MBE1 concentration: 1 uM).
Take RBM12 (UniProt Q9NTZ6): the melting temperature shift reads like this: (MBE1 concentration: 100 nM) -0.776 °C; (MBE1 concentration: 1 uM) -0.193 °C.
Taken in the same sequence, the figures for GLRX2 (UniProt Q9NS18) were -2.72 °C and 1.11 °C.
On the same counts, the results for RAB18 (UniProt Q9NP72) are -2.69 °C and 0.863 °C.
Taken in the same sequence, the figures for UniProt Q9NUK0 were -11.7 °C and -8.75 °C.
On to NEK6 (UniProt Q9HC98), for which the melting temperature shift reads like this: (MBE1 concentration: 100 nM) -0.0977 °C; (MBE1 concentration: 1 uM) 0.275 °C.
On the same counts, the results for SLC25A22 (UniProt Q9H936) are -1.16 °C and -1.4 °C.
DCAF13 (UniProt Q9NV06): the melting temperature shift (MBE1 concentration: 100 nM) was -0.25 °C and the melting temperature shift (MBE1 concentration: 1 uM) was 0.556 °C.
Taken in the same sequence, the figures for GPN1 (UniProt Q9HCN4) were -0.853 °C and -2.27 °C.
UniProt Q9NSA3: the melting temperature shift is, setting by setting: (MBE1 concentration: 100 nM) 2.09 °C; (MBE1 concentration: 1 uM) -1.04 °C.
Taken in the same sequence, the figures for PFDN4 (UniProt Q9NQP4) were -2.71 °C and -0.638 °C.
Taken in the same sequence, the figures for ARFGAP3 (UniProt Q9NP61) were 0.0733 °C and 0.745 °C.
On to UTP3 (UniProt Q9NQZ2), for which the melting temperature shift (MBE1 concentration: 100 nM) is 0.782 °C and the melting temperature shift (MBE1 concentration: 1 uM) was 0.311 °C.
Taken in the same sequence, the figures for CWC22 (UniProt Q9HCG8) were -0.0192 °C and -0.282 °C.
In the case of MOV10 (UniProt Q9HCE1), the melting temperature shift runs as follows: (MBE1 concentration: 100 nM) 2.14 °C; (MBE1 concentration: 1 uM) 1.29 °C.
On the same counts, the results for CACYBP (UniProt Q9HB71) are -0.543 °C and -0.449 °C.
On the same counts, the results for ACSS2 (UniProt Q9NR19) are 0.293 °C and 0.128 °C.
Taken in the same sequence, the figures for ABCB6 (UniProt Q9NP58) were -0.805 °C and 0.0335 °C.
On to GOPC (UniProt Q9HD26), for which the melting temperature shift was -0.463 °C (MBE1 concentration: 100 nM) and -0.82 °C (MBE1 concentration: 1 uM).
With EXOC1 (UniProt Q9NV70), the melting temperature shift by setting is: (MBE1 concentration: 100 nM) -0.696 °C; (MBE1 concentration: 1 uM) -0.231 °C.
Consider MRS2 (UniProt Q9HD23), for which the melting temperature shift reads like this: (MBE1 concentration: 100 nM) 1.23 °C; (MBE1 concentration: 1 uM) -0.617 °C.
For the target BRD7 (UniProt Q9NPI1), the melting temperature shift is -0.269 °C (MBE1 concentration: 100 nM) and -0.237 °C (MBE1 concentration: 1 uM).
Taken in the same sequence, the figures for AVEN (UniProt Q9NQS1) were -0.443 °C and 0.333 °C.
On the same counts, the results for UniProt Q9H9Q4 are -1.48 °C and -0.443 °C.
As for UniProt Q9NRD5, the melting temperature shift was 1.2 °C (MBE1 concentration: 100 nM) and 0.366 °C (MBE1 concentration: 1 uM).
For the target ATP13A1 (UniProt Q9HD20), the melting temperature shift by setting is: (MBE1 concentration: 100 nM) -0.0537 °C; (MBE1 concentration: 1 uM) 0.254 °C.
On the same counts, the results for TBC1D17 (UniProt Q9HA65) are 0.58 °C and -0.305 °C.
On the same counts, the results for IARS2 (UniProt Q9NSE4) are -0.649 °C and 0.769 °C.
Taken in the same sequence, the figures for ZWILCH (UniProt Q9H900) were 0.696 °C and -0.739 °C.
As for XPNPEP3 (UniProt Q9NQH7), the melting temperature shift is, setting by setting: (MBE1 concentration: 100 nM) -0.0977 °C; (MBE1 concentration: 1 uM) 0.153 °C.
On the same counts, the results for FARSB (UniProt Q9NSD9) are 0.293 °C and 0.0855 °C.
Taken in the same sequence, the figures for UniProt Q9NU19 were -1.17 °C and -1.26 °C.
On the same counts, the results for RPRD1B (UniProt Q9NQG5) are 0.336 °C and -0.531 °C.
Consider EMC7 (UniProt Q9NPA0), for which the melting temperature shift is -0.475 °C (MBE1 concentration: 100 nM) and -0.469 °C (MBE1 concentration: 1 uM).
On the same counts, the results for UniProt Q9HCM3 are -0.926 °C and -0.305 °C.
On the same counts, the results for BAZ1A (UniProt Q9NRL2) are -0.31 °C and -0.506 °C.
On the same counts, the results for UniProt Q9NQA3 are -0.353 °C and -0.485 °C.
For SRA1 (UniProt Q9HD15), the melting temperature shift runs as follows: (MBE1 concentration: 100 nM) -0.463 °C; (MBE1 concentration: 1 uM) -0.262 °C.
Taken in the same sequence, the figures for TM9SF3 (UniProt Q9HD45) were -0.0805 °C and 0.751 °C.
For PPAN (UniProt Q9NQ55), the melting temperature shift was -0.305 °C (MBE1 concentration: 100 nM) and -0.128 °C (MBE1 concentration: 1 uM).
As for TBC1D13 (UniProt Q9NVG8), the melting temperature shift (MBE1 concentration: 100 nM) was -0.624 °C and the melting temperature shift (MBE1 concentration: 1 uM) came out at 0.362 °C.
For the target UniProt Q9NP90, the melting temperature shift was 1.75 °C (MBE1 concentration: 100 nM) and 1.52 °C (MBE1 concentration: 1 uM).
Taken in the same sequence, the figures for CUTC (UniProt Q9NTM9) were -0.167 °C and 0.556 °C.
